These are yes or no findings as the source states them, for the method shown. Some entries that bind do so weakly or less than the wild type.
Target: EMS16, C-type lectin-like protein from Echis multisquamatus venom (Echis multisquamatus) (UniProt Q7T2Q1)
Assay: cell adhesion assay; 10 µg/mL CTL (Vixapatin or EMS16) immobilised overnight at 4 °C on 96-well plate in PBS; blocked with 1% BSA in HBSS with 5 mM MgCl2; CMFDA-labelled α2K562 cells (1 × 10^5 cells/well) added with or without monoclonal anti-integrin antibodies, 37 °C, 60 min; adherent cells counted by fluorescence; only the target purified

By UniProt entry, the sequences of proteins in these tests, tags left out. Where a name states a change or a piece, a line headed by the entry shows the natural chain unless it says otherwise.
UniProt Q7T2Q1: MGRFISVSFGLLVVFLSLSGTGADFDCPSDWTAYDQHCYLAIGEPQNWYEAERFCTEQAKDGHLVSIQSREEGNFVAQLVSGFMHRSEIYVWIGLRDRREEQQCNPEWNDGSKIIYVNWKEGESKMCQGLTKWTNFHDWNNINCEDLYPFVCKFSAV
UniProt P17301: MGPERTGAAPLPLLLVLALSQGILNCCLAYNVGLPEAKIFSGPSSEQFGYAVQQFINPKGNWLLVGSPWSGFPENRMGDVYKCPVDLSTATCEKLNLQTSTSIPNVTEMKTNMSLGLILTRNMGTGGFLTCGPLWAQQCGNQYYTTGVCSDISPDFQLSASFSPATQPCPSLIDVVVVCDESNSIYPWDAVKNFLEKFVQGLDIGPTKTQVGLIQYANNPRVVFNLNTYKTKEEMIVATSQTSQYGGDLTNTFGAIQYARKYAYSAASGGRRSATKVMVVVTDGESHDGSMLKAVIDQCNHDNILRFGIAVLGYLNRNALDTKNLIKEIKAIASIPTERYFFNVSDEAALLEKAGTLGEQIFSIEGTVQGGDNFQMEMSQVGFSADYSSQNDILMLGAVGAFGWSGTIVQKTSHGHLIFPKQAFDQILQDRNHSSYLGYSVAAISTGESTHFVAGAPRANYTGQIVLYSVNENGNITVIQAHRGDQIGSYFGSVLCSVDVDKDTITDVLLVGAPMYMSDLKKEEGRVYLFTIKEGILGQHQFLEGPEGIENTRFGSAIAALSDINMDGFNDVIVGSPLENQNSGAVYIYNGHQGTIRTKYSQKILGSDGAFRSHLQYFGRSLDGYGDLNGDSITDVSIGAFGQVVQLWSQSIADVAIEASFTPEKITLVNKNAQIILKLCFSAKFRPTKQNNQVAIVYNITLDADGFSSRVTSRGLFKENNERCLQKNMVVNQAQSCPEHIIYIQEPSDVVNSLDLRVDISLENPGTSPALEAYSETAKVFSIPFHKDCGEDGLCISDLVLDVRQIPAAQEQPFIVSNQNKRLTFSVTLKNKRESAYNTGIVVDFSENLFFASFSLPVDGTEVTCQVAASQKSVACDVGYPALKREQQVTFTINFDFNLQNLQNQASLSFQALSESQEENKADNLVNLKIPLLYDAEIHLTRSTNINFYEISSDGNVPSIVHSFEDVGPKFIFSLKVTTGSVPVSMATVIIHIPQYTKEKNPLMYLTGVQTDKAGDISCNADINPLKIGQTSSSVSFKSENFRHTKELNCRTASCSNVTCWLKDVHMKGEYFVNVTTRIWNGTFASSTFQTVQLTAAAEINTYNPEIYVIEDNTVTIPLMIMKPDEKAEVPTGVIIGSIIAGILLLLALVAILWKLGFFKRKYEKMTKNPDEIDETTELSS

In the case of “α2β1 integrin on K562 cells transfected with the α2 integrin subunit (from UniProt P17301 30-1181; P05556 21-798) (receptor)”, the binding was “binds”.
